The other results are listed elsewhere or left out.
Experiments:
Test in all cases: log2 fold change, soluble protein after heating vs DMSO (PISA); higher = thermal stabilisation; K562 cells, 10 uM, 30 min; active = over 0.2 and 3.5 SD of the protein, either way, in both replicates (recomputed)
[1] = compound: CC[C@@H]1C(=O)N(C)c2cnc(Nc3ccc(C(=O)NC4CCN(C)CC4)cc3OC)nc2N1C1CCCC1
Method in brief: (§1)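 K562 cells at 2×10^6 cells/mL were treated with 10 μM compound for 30 min. Aliquots were heated for 3 min across 48°C-58°C, pooled, and extracted in PBS with 0.5% NP-40 at 4°C; soluble protein was the supernatant after 21,000xg for 90 min. Soluble protein was quantified by TMTpro 16plex LC-MS/MS with channel sums equalised, and reported as log2 fold change in thermal stability against DMSO controls, with values from duplicates.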

Sequences of proteins named here, by UniProt entry; tags and fusion partners are left off. A change or cut given only in a name is not applied to a line headed by its entry.
UniProt Q16594, whole entry, looked up: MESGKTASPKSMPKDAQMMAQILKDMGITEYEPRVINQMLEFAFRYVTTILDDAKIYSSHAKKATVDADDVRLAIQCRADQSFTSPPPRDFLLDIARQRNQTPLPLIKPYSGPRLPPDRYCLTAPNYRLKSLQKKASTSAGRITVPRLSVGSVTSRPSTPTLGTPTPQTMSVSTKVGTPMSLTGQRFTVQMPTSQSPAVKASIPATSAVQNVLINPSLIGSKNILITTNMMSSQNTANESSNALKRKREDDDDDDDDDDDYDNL
UniProt Q13395: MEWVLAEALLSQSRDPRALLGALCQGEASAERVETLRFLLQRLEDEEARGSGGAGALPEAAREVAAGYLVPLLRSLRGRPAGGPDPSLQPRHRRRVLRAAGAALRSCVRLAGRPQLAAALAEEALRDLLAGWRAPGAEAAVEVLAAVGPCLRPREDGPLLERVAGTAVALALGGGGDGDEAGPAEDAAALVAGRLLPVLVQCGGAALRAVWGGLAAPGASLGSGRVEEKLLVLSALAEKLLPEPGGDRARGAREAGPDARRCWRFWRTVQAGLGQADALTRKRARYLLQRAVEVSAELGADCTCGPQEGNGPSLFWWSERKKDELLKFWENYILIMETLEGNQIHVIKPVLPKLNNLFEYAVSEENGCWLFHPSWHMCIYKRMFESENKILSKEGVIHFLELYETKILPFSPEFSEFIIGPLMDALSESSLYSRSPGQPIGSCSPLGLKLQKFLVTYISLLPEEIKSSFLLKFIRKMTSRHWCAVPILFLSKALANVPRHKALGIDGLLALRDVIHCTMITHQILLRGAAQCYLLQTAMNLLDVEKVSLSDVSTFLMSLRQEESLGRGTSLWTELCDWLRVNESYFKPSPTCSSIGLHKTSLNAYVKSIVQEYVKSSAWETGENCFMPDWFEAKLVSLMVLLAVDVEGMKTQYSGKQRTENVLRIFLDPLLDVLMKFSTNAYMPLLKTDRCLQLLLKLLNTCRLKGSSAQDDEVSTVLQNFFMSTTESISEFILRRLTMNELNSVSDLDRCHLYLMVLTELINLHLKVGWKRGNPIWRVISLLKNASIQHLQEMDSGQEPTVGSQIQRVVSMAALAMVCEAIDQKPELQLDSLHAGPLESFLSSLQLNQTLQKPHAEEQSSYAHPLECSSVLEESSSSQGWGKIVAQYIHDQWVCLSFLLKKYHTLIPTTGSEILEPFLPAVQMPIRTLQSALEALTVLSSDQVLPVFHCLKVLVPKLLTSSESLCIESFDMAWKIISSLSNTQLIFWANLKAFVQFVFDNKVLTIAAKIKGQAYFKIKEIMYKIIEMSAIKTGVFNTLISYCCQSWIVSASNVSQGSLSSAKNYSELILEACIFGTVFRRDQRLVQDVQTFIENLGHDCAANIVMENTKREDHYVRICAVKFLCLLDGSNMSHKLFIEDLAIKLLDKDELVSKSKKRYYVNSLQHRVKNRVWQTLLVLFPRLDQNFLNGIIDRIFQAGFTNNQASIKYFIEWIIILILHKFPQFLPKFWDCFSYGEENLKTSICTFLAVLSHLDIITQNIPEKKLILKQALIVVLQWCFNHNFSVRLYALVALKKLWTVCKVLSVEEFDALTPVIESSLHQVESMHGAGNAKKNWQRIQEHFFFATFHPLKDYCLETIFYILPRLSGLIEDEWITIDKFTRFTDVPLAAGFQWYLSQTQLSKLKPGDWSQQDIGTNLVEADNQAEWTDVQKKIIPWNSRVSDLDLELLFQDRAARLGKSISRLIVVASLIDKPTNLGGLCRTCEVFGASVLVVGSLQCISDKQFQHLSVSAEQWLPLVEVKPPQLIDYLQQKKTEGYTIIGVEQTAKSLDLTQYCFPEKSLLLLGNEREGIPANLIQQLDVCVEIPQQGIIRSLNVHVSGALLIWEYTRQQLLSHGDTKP
UniProt Q6UWL2: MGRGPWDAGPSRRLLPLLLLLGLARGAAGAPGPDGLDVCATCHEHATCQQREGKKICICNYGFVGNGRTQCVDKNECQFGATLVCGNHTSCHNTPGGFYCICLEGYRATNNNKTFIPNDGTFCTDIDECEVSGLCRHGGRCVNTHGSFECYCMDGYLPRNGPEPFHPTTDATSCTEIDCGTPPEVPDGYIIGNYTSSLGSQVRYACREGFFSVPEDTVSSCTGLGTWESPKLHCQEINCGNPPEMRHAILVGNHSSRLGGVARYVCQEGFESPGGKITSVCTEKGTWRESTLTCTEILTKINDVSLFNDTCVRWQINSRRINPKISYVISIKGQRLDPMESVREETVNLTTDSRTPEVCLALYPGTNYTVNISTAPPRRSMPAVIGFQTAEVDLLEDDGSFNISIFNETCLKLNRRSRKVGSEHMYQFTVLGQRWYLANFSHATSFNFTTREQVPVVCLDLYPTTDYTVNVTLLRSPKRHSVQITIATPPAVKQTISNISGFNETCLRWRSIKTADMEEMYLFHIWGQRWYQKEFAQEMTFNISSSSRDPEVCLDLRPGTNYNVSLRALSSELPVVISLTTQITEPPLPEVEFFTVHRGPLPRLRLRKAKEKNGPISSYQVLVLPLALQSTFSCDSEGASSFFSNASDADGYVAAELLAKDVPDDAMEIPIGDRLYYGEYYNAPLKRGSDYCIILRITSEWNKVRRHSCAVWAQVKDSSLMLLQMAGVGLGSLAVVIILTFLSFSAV
UniProt Q9P2R7: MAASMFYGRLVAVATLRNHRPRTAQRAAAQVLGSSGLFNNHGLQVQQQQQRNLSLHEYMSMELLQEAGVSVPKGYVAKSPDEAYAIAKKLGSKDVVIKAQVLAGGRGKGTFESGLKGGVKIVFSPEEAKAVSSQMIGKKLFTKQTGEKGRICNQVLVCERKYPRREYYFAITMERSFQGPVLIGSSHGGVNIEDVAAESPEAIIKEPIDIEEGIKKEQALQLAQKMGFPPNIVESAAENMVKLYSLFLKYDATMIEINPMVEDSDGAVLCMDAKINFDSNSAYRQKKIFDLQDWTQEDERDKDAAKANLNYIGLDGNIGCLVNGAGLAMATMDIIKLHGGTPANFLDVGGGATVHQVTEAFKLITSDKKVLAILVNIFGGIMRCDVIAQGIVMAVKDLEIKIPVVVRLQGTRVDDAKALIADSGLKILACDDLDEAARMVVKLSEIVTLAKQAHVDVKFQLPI
UniProt Q86VP1, whole entry, looked up: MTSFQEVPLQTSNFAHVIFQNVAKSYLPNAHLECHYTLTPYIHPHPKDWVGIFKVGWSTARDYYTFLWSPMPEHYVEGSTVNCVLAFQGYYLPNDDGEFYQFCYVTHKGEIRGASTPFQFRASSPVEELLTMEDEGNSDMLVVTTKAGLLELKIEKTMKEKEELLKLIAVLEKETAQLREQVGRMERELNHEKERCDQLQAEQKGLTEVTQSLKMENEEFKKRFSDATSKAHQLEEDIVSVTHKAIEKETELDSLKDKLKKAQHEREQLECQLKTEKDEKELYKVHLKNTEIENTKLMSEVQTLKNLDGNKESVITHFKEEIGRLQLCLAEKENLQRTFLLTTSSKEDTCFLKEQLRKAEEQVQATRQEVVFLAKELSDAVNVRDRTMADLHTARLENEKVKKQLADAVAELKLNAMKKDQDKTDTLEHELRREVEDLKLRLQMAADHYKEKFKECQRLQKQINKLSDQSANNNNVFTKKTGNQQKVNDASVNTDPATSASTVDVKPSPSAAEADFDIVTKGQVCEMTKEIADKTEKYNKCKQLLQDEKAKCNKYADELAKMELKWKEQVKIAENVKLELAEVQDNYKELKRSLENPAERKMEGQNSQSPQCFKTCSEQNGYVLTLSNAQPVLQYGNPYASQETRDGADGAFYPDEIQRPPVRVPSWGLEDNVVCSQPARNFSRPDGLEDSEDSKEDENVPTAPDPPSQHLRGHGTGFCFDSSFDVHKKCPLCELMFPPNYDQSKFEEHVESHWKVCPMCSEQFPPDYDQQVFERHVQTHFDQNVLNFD
UniProt Q96BW9: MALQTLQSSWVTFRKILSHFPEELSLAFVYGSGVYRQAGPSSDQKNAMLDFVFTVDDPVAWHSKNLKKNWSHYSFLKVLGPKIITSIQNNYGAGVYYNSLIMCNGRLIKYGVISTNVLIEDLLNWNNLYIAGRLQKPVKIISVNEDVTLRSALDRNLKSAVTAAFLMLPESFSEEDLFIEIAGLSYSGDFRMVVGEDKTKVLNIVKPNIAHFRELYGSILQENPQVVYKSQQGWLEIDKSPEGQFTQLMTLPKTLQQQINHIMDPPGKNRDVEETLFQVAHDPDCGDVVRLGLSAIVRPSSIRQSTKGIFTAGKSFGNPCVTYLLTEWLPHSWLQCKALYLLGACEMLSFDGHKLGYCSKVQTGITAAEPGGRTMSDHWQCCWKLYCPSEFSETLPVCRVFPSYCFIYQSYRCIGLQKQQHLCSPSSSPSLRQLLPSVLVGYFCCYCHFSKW
UniProt Q9UH99: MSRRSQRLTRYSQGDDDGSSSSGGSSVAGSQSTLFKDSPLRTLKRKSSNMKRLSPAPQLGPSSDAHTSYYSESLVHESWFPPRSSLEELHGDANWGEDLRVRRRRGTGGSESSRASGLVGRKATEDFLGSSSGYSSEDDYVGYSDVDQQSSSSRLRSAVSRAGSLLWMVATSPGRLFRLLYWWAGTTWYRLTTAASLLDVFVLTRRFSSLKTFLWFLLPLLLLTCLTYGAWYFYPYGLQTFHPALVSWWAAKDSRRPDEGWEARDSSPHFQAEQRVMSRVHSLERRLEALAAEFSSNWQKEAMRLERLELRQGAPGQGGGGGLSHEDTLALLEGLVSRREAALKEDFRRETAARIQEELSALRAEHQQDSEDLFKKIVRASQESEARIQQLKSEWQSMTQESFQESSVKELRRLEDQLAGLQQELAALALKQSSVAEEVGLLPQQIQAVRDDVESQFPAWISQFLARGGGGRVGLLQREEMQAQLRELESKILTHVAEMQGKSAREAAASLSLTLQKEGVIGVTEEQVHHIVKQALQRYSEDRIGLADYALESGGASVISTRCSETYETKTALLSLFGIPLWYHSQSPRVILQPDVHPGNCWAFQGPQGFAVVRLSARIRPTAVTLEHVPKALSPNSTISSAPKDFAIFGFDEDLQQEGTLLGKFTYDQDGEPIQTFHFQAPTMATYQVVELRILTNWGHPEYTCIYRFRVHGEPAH
UniProt P53597: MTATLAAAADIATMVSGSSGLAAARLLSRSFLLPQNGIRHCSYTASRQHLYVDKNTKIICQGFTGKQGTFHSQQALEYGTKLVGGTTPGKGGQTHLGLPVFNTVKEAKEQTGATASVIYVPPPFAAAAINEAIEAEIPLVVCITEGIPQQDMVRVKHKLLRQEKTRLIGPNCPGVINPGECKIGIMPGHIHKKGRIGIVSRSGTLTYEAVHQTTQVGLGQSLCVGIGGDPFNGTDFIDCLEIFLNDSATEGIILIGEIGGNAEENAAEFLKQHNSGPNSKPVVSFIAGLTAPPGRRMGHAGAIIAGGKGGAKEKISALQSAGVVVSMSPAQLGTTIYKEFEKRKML
UniProt Q93075: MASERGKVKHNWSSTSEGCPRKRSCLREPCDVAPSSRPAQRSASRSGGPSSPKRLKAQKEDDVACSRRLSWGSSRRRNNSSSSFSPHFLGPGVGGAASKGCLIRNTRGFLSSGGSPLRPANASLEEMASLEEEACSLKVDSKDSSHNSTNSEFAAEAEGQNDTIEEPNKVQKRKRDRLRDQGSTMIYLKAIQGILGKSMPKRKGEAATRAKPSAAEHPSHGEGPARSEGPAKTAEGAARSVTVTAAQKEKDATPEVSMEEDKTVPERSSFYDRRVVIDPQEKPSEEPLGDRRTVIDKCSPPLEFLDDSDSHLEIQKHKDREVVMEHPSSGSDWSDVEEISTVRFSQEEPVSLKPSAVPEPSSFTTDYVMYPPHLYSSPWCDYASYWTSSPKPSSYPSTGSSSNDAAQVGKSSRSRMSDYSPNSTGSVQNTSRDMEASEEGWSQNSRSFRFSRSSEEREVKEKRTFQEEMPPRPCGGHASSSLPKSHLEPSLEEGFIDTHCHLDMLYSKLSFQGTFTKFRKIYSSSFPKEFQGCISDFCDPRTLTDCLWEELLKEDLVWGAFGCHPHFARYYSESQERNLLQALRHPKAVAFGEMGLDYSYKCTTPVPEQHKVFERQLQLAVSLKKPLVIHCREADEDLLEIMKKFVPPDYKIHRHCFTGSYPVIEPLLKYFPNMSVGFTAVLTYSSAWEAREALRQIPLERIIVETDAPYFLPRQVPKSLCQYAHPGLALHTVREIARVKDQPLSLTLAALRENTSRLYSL
UniProt Q8N2I9: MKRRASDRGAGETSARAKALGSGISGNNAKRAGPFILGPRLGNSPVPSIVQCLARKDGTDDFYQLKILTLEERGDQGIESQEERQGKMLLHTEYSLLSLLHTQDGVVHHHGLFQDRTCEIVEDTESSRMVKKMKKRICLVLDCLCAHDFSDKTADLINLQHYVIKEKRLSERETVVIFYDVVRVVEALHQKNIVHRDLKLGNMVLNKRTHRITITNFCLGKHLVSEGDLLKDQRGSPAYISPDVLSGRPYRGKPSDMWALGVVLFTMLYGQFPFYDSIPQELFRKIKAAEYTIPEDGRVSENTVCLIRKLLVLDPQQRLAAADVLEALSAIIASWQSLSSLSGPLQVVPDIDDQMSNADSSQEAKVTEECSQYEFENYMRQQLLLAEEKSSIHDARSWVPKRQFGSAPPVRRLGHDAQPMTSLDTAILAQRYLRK

volasertib = compound: CC[C@@H]1C(=O)N(C)c2cnc(Nc3ccc(C(=O)N[C@H]4CC[C@H](N5CCN(CC6CC6)CC5)CC4)cc3OC)nc2N1C(C)C [volasertib]
Method in brief: as §1

[2] = compound: CC[C@H](C)N1C=C(C2=C(C=C(C=C21)C3=CN=C(C=C3)N4CCNCC4)C(=O)NCC5=C(C=C(NC5=O)C)C)C
Method in brief: as §1

epoxomicin = compound: CC[C@H](C)[C@@H](C(=O)N[C@@H]([C@@H](C)O)C(=O)N[C@@H](CC(C)C)C(=O)[C@]1(CO1)C)NC(=O)[C@H]([C@@H](C)CC)N(C)C(=O)C [epoxomicin]
Method in brief: as §1

[3] = compound: CCn1cc(-c2ccnc3[nH]c(-c4cccc(CN(C)C)c4)cc23)c(-c2ccc(NC(=O)N(C)C)cc2)n1
Method in brief: as §1

[4] = compound: CN(C)CC(=O)Nc1ccc2[nH]c(=O)c3ccccc3c2c1
Method in brief: as §1

[5] = compound: CN1C2=C(C3=C1C(=O)N(N=C3)CC4=CC(=CC=C4)N)SC(=C2)S(=O)C
Method in brief: as §1

[6] = compound: CN1CCC(CNc2ccc3ncc(-c4cccc(OC(F)(F)F)c4)n3n2)CC1
Method in brief: as §1

saracatinib = compound: CN1CCN(CCOc2cc(OC3CCOCC3)c3c(Nc4c(Cl)ccc5c4OCO5)ncnc3c2)CC1 [saracatinib]
Method in brief: as §1

sotrastaurin = compound: CN1CCN(c2nc(C3=C(c4c[nH]c5ccccc45)C(=O)NC3=O)c3ccccc3n2)CC1 [sotrastaurin]
Method in brief: as §1

Tubastatin A = compound: CN1CCc2c(c3ccccc3n2Cc2ccc(C(=O)NO)cc2)C1 [Tubastatin A]
Method in brief: as §1

[7] = compound: CNC(=O)C1=CC=CC=C1NC2=NC(=NC=C2Cl)NC3=C(C=C(C=C3)N4CCOCC4)OC
Method in brief: as §1

defactinib = compound: CNC(=O)c1ccc(Nc2ncc(C(F)(F)F)c(NCc3nccnc3N(C)S(C)(=O)=O)n2)cc1 [defactinib]
Method in brief: as §1

rucaparib = compound: CNCc1ccc(-c2[nH]c3cc(F)cc4c3c2CCNC4=O)cc1 [rucaparib]
Method in brief: as §1

[8] = compound: CNc1nc(-c2ccc3c(N)n[nH]c3c2)cc(N2C[C@@H](C(=O)NC3CCCCC3)CC[C@H]2C)n1
Method in brief: as §1

encorafenib = compound: COC(=O)N[C@@H](C)CNc1nccc(-c2cn(C(C)C)nc2-c2cc(Cl)cc(NS(C)(=O)=O)c2F)n1 [encorafenib]
Method in brief: as §1

[9] = compound: COC(=O)[C@H](CCSC)NC(=O)C1=C(C=C(C=C1)NC[C@H](CS)N)C2=CC=CC=C2
Method in brief: as §1

[10] = compound: CCn1c(C(=O)N(C2CC2)C2CC2)cc2c3c(ncn3C)c(Nc3cc(C)n(C)n3)nc21
Method in brief: as §1

rosiglitazone = compound: CN(CCOC1=CC=C(C=C1)C[C@H]2C(=O)NC(=O)S2)C3=CC=CC=N3 (racemic) [rosiglitazone]
Method in brief: as §1

alvocidib = compound: CN1CC[C@H](c2c(O)cc(O)c3c(=O)cc(-c4ccccc4Cl)oc23)[C@H](O)C1 [alvocidib]
Method in brief: as §1

Row | Target | log2 fold change [1] | log2 fold change (volasertib) | log2 fold change [2] | log2 fold change (epoxomicin) | log2 fold change [3] | log2 fold change [4] | log2 fold change [5] | log2 fold change [6] | log2 fold change (saracatinib) | log2 fold change (sotrastaurin) | log2 fold change (Tubastatin A) | log2 fold change [7] | log2 fold change (defactinib) | log2 fold change (rucaparib) | log2 fold change [8] | log2 fold change (encorafenib) | log2 fold change [9] | log2 fold change [10] | log2 fold change (rosiglitazone) | log2 fold change (alvocidib)
1 | TAF9 (UniProt Q16594) | inactive: -0.028 | inactive: 0.095 | inactive: -0.029 | inactive: 0.12 | inactive: 0.034 | inactive: -0.021 | inactive: 0.061 | inactive: 0.077 | inactive: 0.076 | inactive: 0.021 | inactive: -0.023 | inactive: -0.1 | inactive: 0.016 | inactive: -0.019 | inactive: -0.065 | inactive: -0.048 | inactive: 0.103 |  |  | 
2 | TARBP1 (UniProt Q13395) | inactive: -0.022 | active: -0.337 | inactive: -0.107 | inactive: 0.121 | inactive: 0.077 | inactive: -0.012 | inactive: 0.001 | inactive: -0.027 | inactive: 0.026 | inactive: -0.036 | inactive: -0.033 | inactive: 0.021 | inactive: -0.026 | inactive: 0.042 | inactive: -0.027 | inactive: -0.041 | inactive: 0.014 |  |  | 
3 | TACC2 (UniProt O95359) | inactive: -0.013 | inactive: -0.048 | inactive: 0.014 |  | inactive: 0.041 | inactive: -0.069 | inactive: 0 | inactive: -0.044 | inactive: -0.003 | inactive: 0.115 | inactive: -0.041 | inactive: 0.075 | inactive: -0.091 | inactive: -0.045 | inactive: -0.105 | inactive: -0.013 | inactive: 0.039 |  |  | 
4 | SUSD1 isoform 2 (UniProt Q6UWL2) | inactive: 0.17 | inactive: -0.183 | inactive: 0.096 |  | inactive: 0.038 | inactive: -0.174 | inactive: -0.034 | inactive: 0.063 | inactive: -0.085 |  |  | inactive: -0.124 | inactive: -0.081 | inactive: -0.187 | inactive: 0.028 | inactive: 0.045 | inactive: 0.043 | inactive: -0.08 | inactive: -0.032 | inactive: -0.044
5 | SUCLA2 (UniProt Q9P2R7) | inactive: 0.013 | inactive: -0.105 | inactive: 0.052 | inactive: 0.016 | inactive: -0.049 | inactive: 0.018 | inactive: -0.071 | inactive: -0.05 | inactive: -0.013 | inactive: 0.03 | inactive: 0.024 | inactive: 0.011 | inactive: -0.037 | inactive: -0.029 | inactive: -0.048 | inactive: 0.021 | inactive: -0.008 |  |  | 
6 | TAX1BP1 (UniProt Q86VP1) | inactive: -0.144 | active: -0.298 | inactive: -0.081 | inactive: -0.027 | inactive: -0.067 | inactive: 0 | inactive: -0.001 | inactive: 0.003 | inactive: 0.016 | inactive: -0.057 | inactive: -0.01 | inactive: -0.016 | inactive: -0.038 | inactive: -0.003 | inactive: -0.06 | inactive: 0.025 | inactive: 0.054 |  |  | 
7 | TAOK2 (UniProt Q9UL54) | inactive: 0.024 | inactive: -0.061 | inactive: -0.006 | inactive: -0.01 | inactive: -0.076 |  |  | inactive: 0.01 |  |  | inactive: -0.003 | inactive: 0.244 |  | inactive: -0.012 |  | inactive: -0.028 |  |  |  | 
8 | TAMM41 isoform 3 (UniProt Q96BW9) | inactive: -0.209 | active: -0.312 | inactive: -0.004 | inactive: 0.02 | inactive: 0.022 | inactive: 0.013 | inactive: -0.052 | active: -0.362 | inactive: -0.009 | inactive: -0.003 | inactive: -0.043 | inactive: -0.037 | inactive: 0.015 | inactive: 0.036 | inactive: -0.006 | inactive: 0.01 | inactive: -0.007 |  |  | 
9 | STXBP5L (UniProt Q9Y2K9) | inactive: 0.124 | inactive: -0.261 | inactive: 0.078 |  | inactive: -0.138 |  | inactive: -0.034 | inactive: -0.119 | inactive: 0.089 | inactive: 0 |  | inactive: 0.02 |  | inactive: -0.134 | inactive: -0.079 | inactive: -0.024 |  | inactive: 0.089 |  | inactive: -0.096
10 | SUN2 (UniProt Q9UH99) | inactive: 0.016 | inactive: -0.064 | inactive: 0.01 | inactive: 0.045 | inactive: -0.032 | inactive: -0.012 | inactive: 0.015 | inactive: 0.057 | inactive: -0.029 | inactive: -0.09 | inactive: 0.053 | inactive: -0.068 | inactive: -0.05 | inactive: 0.03 | inactive: -0.066 | inactive: 0.067 | inactive: 0.023 |  |  | 
11 | SUOX (UniProt P51687) | inactive: 0.003 | inactive: -0.04 | inactive: -0.02 | inactive: 0.013 | inactive: 0 | inactive: 0.005 | inactive: -0.07 | active: -0.31 | inactive: 0.02 | inactive: 0.013 | inactive: -0.031 | inactive: -0.01 | inactive: 0.031 | inactive: -0.037 | inactive: -0.022 | inactive: 0.001 | inactive: 0.042 |  |  | 
12 | SUCLG1 (UniProt P53597) | inactive: 0.008 | inactive: -0.044 | inactive: 0.063 | inactive: 0.031 | inactive: -0.012 | inactive: -0.027 | inactive: -0.041 | inactive: -0.097 | inactive: 0.042 | inactive: 0.019 | inactive: -0.005 | inactive: 0.015 | inactive: -0.057 | inactive: 0.016 | inactive: -0.006 | inactive: -0.001 | inactive: 0.016 |  |  | 
13 | TATDN2 (UniProt Q93075) | inactive: 0.071 | inactive: -0.008 | inactive: 0.104 | inactive: -0.096 | inactive: -0.071 | inactive: -0.098 | inactive: 0.046 | inactive: -0.076 | inactive: -0.017 | inactive: 0.111 | inactive: -0.094 | inactive: -0.002 | inactive: 0 | inactive: -0.175 | inactive: 0 | inactive: 0.099 | inactive: -0.031 |  |  | 
14 | STRN (UniProt O43815) | inactive: -0.031 | inactive: -0.031 | inactive: 0.026 | inactive: 0.046 | inactive: -0.046 | inactive: 0.02 | inactive: -0.031 | inactive: 0.073 | inactive: 0.022 | inactive: 0.026 | inactive: 0.013 | inactive: -0.007 | inactive: -0.076 | inactive: -0.007 | inactive: -0.026 | inactive: 0.017 | inactive: -0.017 |  |  | 
15 | SUCO (UniProt Q9UBS9) | inactive: 0.02 | inactive: -0.115 |  | inactive: -0.02 | inactive: 0.021 | inactive: -0.087 | inactive: 0.148 | inactive: 0.021 | inactive: -0.016 | inactive: 0 | inactive: 0.048 | inactive: -0.079 | inactive: 0.199 | inactive: -0.059 | inactive: 0.161 | inactive: 0.012 | inactive: 0.095 | inactive: -0.06 |  | inactive: 0.054
16 | SYNE2 isoform 2 (UniProt Q8WXH0) | inactive: 0.039 | inactive: -0.025 | inactive: -0.145 |  | inactive: -0.274 | inactive: -0.044 | inactive: -0.021 | inactive: -0.025 | inactive: -0.121 | inactive: -0.005 | inactive: 0.071 | inactive: -0.109 | inactive: 0.029 | inactive: -0.045 | inactive: 0.049 | inactive: -0.107 | inactive: -0.006 |  |  | 
17 | TAF4 (UniProt O00268) |  | inactive: 0.054 |  | inactive: -0.023 | inactive: -0.02 | inactive: 0.055 |  | inactive: 0.029 |  | inactive: 0.021 | inactive: 0.116 | inactive: -0.135 | inactive: -0.044 |  |  |  | inactive: -0.195 | inactive: -0.12 | inactive: -0.077 | 
18 | STRN3 isoform 2 (UniProt Q13033) |  | inactive: -0.171 | inactive: -0.164 | inactive: -0.072 | inactive: 0.035 | inactive: 0.18 |  | inactive: 0.096 |  |  | inactive: -0.015 | inactive: 0.102 | inactive: -0.004 |  |  |  | inactive: -0.007 | inactive: 0.017 | inactive: -0.001 | inactive: 0.019
19 | STK40 isoform 4 (UniProt Q8N2I9) |  | inactive: 0.12 |  |  |  |  | inactive: 0.186 |  | inactive: -0.23 |  |  |  |  |  | inactive: 0.011 |  |  |  |  | 

An excerpt of these results, as a markdown table.

| Row | Target | log2 fold change [1] | log2 fold change (volasertib) | log2 fold change [2] | log2 fold change (epoxomicin) | log2 fold change [3] | log2 fold change [4] | log2 fold change [5] | log2 fold change [6] | log2 fold change (saracatinib) | log2 fold change (sotrastaurin) | log2 fold change (Tubastatin A) | log2 fold change [7] | log2 fold change (defactinib) | log2 fold change (rucaparib) | log2 fold change [8] | log2 fold change (encorafenib) | log2 fold change [9] | log2 fold change [10] | log2 fold change (rosiglitazone) | log2 fold change (alvocidib) |
| --- | --- | --- | --- | --- | --- | --- | --- | --- | --- | --- | --- | --- | --- | --- | --- | --- | --- | --- | --- | --- | --- |
| 10 | SUN2 (UniProt Q9UH99) | inactive: 0.016 | inactive: -0.064 | inactive: 0.01 | inactive: 0.045 | inactive: -0.032 | inactive: -0.012 | inactive: 0.015 | inactive: 0.057 | inactive: -0.029 | inactive: -0.09 | inactive: 0.053 | inactive: -0.068 | inactive: -0.05 | inactive: 0.03 | inactive: -0.066 | inactive: 0.067 | inactive: 0.023 |  |  |  |
| 11 | SUOX (UniProt P51687) | inactive: 0.003 | inactive: -0.04 | inactive: -0.02 | inactive: 0.013 | inactive: 0 | inactive: 0.005 | inactive: -0.07 | active: -0.31 | inactive: 0.02 | inactive: 0.013 | inactive: -0.031 | inactive: -0.01 | inactive: 0.031 | inactive: -0.037 | inactive: -0.022 | inactive: 0.001 | inactive: 0.042 |  |  |  |
